Measured data: PubChem BioAssay AID1259405 (NCATS, 2018)
Shown is a random part of about 50,000 deposited reagents. Over the whole deposit, about 4,000 (8%) got an active call. 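Mouse siRNA library applied to hamster cells; one well for each siRNA.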 Entries without a mark were called inactive. The numbers tell different reagents against one gene apart.

- Assay: 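Silenced genes that increase secreted GFP made by CHO cells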 (primary screen)
- Cell system: Chinese hamster CHO-K1 ovary cells with stable secreted eGFP expression
- Reagents: single siRNA against mouse genes, 0.8 pmol siRNA per well (2 µl of 400 nM stock)
- Time to read-out: 3 days
- Read-out: 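Percent of the per-plate non-targeting control median for intracellular GFP per well by laser scanning cytometry and for cell viability by ATP luminescence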
- Direction: GFP, % of control: higher = more GFP per well, higher productivity; viability (ATP), % of control: higher = more viable cells (more ATP)
- Rule for the call: 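a knock-down is called active if GFP reaches 120% or more of non-targeting control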

The opening 2 entries, to show the layout:
Spsb3 (splA/ryanodine receptor domain and SOCS box containing 3) #1 → GFP, % of control: 91; viability (ATP), % of control: 87.4
Spsb3 (splA/ryanodine receptor domain and SOCS box containing 3) #2 → GFP, % of control: 78.9; viability (ATP), % of control: 74.5

Main list, from the start:
Spsb3 (splA/ryanodine receptor domain and SOCS box containing 3) #1 → GFP, % of control: 91; viability (ATP), % of control: 87.4
Spsb3 (splA/ryanodine receptor domain and SOCS box containing 3) #2 → GFP, % of control: 78.9; viability (ATP), % of control: 74.5
Bbs7 (Bardet-Biedl syndrome 7) #1 → GFP, % of control: 52; viability (ATP), % of control: 50.4
Bbs7 (Bardet-Biedl syndrome 7) #2 → GFP, % of control: 92.6; viability (ATP), % of control: 78.6
Bbs7 (Bardet-Biedl syndrome 7) #3 → GFP, % of control: 78.8; viability (ATP), % of control: 81.9
Acaa2 (acetyl-CoA acyltransferase 2) #1 → GFP, % of control: 97.6; viability (ATP), % of control: 72.8
Acaa2 (acetyl-CoA acyltransferase 2) #2 → GFP, % of control: 84.9; viability (ATP), % of control: 113
Acaa2 (acetyl-CoA acyltransferase 2) #3 → GFP, % of control: 129 (active); viability (ATP), % of control: 142
Gm5124 (predicted pseudogene 5124) #1 → GFP, % of control: 100; viability (ATP), % of control: 73
Gm5124 (predicted pseudogene 5124) #2 → GFP, % of control: 119; viability (ATP), % of control: 92.9
Gm5124 (predicted pseudogene 5124) #3 → GFP, % of control: 77.9; viability (ATP), % of control: 123
Gnptab #1 → GFP, % of control: 103; viability (ATP), % of control: 79.9
Gnptab #2 → GFP, % of control: 66; viability (ATP), % of control: 75
Gnptab #3 → GFP, % of control: 93.8; viability (ATP), % of control: 85
Dnase1l1 (deoxyribonuclease 1-like 1) #1 → GFP, % of control: 169 (active); viability (ATP), % of control: 74.3
Dnase1l1 (deoxyribonuclease 1-like 1) #2 → GFP, % of control: 67.1; viability (ATP), % of control: 79.1
Dnase1l1 (deoxyribonuclease 1-like 1) #3 → GFP, % of control: 122 (active); viability (ATP), % of control: 69.8
Aldh1a7 (aldehyde dehydrogenase family 1, subfamily A7) #1 → GFP, % of control: 73; viability (ATP), % of control: 71.5
Aldh1a7 (aldehyde dehydrogenase family 1, subfamily A7) #2 → GFP, % of control: 66.4; viability (ATP), % of control: 82.8
Aldh1a7 (aldehyde dehydrogenase family 1, subfamily A7) #3 → GFP, % of control: 118; viability (ATP), % of control: 113
Hsd3b5 #1 → GFP, % of control: 43.8; viability (ATP), % of control: 42.4
Hsd3b5 #2 → GFP, % of control: 61.1; viability (ATP), % of control: 35.8
Hsd3b5 #3 → GFP, % of control: 101; viability (ATP), % of control: 98
Ggn (gametogenetin) #1 → GFP, % of control: 63.4; viability (ATP), % of control: 72.6
Ggn (gametogenetin) #2 → GFP, % of control: 134 (active); viability (ATP), % of control: 68.9
Ggn (gametogenetin) #3 → GFP, % of control: 70.5; viability (ATP), % of control: 74.8
Marchf10 (membrane associated ring-CH-type finger 10) #1 → GFP, % of control: 76.5; viability (ATP), % of control: 82.8
Marchf10 (membrane associated ring-CH-type finger 10) #2 → GFP, % of control: 88.9; viability (ATP), % of control: 98
Marchf10 (membrane associated ring-CH-type finger 10) #3 → GFP, % of control: 149 (active); viability (ATP), % of control: 115
